Experiment: general procedure: Fmoc solid-phase peptide synthesis; Rink-Amide MBHA resin (0.73 mmol/g) or Fmoc-Ethyl-Indole AM resin (0.94 mmol/g); DIC/HOBt
Conditions: whole synthesis, 220 nm

Substance | final HPLC purity
[^2ΔHis, ^3D-Tic, ^4Lys(Bu), ^7D-Trp] | ≥98%
[^2ΔHis, ^3D-Tic, ^4Lys(Bu)] | ≥96%
[^2ΔHis, ^3D-Tic, ^7D-Trp] | ≥95%
[^2ΔHis, ^3D-Tic] | ≥95%
[^3D-Tic, ^4Lys(Bu), ^7D-Trp] | ≥96%
[^3D-Tic, ^4Lys(Bu)] | ≥97%
[^3D-Tic, ^7D-Trp] | >97%
[^3D-Trp, ^4Lys(Bu)] | ≥98%
[^4Lys(Bu), ^6Asp(OMe)] | ≥98%
[^4Lys(Bu), ^10ΔGly-NHEt] | ≥97%
[^10ΔGly-NHEt] | ≥97%
